PubChem BioAssay AID652259 – Drosophila RNAi Screening Center, 2013
In all, the deposit lists about 22,000 reagents; shown is an unselected part of those that have a named target and a result. Over the whole deposit, 233 (1.1%) were called active. 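Light values are raw, unnormalised plate reads; the ratio scores behind the reporter calls were not deposited.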 No sequences are given here. Not stated in the record: the amount of reagent, the time to read-out, the dose of the treatment.

Test: 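Knock-downs that push a Wingless-driven reporter up or down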 (primary screen)
Cell system: Drosophila clone 8 imaginal disc epithelial cells
Reagents: long dsRNA against Drosophila genes
Challenge: pathway stimulated by co-transfected Wingless expression plasmid
Measurement: 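Dual luciferase reads per well after Wingless plasmid stimulation: reporter firefly light and Renilla control light; activity is firefly divided by Renilla, a ratio not deposited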
Reading the numbers: firefly reporter light: higher = more Wg reporter light, before normalisation; Renilla control light: higher = more transfected or surviving cells
Rule for the call: 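Strong candidates differ from their plate mean by at least two out of four per-plate statistical tests; weak candidates meet just one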
Calls: active = candidate regulator (raises or lowers reporter); inactive = not a candidate

| reporter change call, replicate 1 | firefly reporter light, replicate 1 | firefly reporter light, replicate 2 | Renilla control light, replicate 1 | Renilla control light, replicate 2 | Call | gene | DRSC id |
| --- | --- | --- | --- | --- | --- | --- | --- |
| – | 26147 | – | 10957 | – | inactive | Obp22a | DRSC00088 |
| Wg reporter activity lowered | 7716 | – | 13427 | – | inactive | mask | DRSC15370 |
| Wg reporter activity lowered | 1012 | 3321 | 949 | 1632 | inactive | mask | DRSC16005 |
| Wg reporter activity lowered | 777 | 3673 | 876 | 1767 | inactive | mask | DRSC16018 |
| – | 2260 | 7005 | 637 | 2747 | inactive | CheB38a | DRSC03205 |
| – | 3140 | – | 1312 | – | inactive | CG8042 | DRSC09676 |
| – | 17673 | – | 4709 | – | inactive | NimB1 | DRSC01880 |
| – | 3123 | 8658 | 1648 | 4295 | inactive | CG5418 | DRSC02857 |
| – | 3744 | – | 1824 | – | inactive | CG7275 | DRSC10796 |
| – | 2408 | 7021 | 598 | 2307 | inactive | Mal-A1 | DRSC07461 |
| – | 2482 | 7084 | 855 | 2467 | inactive | boca | DRSC06408 |
| – | 7206 | – | 2470 | – | inactive | ATPsynB | DRSC09659 |
| – | 3184 | 3272 | 908 | 1412 | inactive | CG12106 | DRSC17805 |
| – | 5465 | – | 1692 | – | inactive | Slik | DRSC04471 |

Continued; the last 2 above are carried over.
| reporter change call, replicate 1 | firefly reporter light, replicate 1 | firefly reporter light, replicate 2 | Renilla control light, replicate 1 | Renilla control light, replicate 2 | Call | gene | DRSC id |
| --- | --- | --- | --- | --- | --- | --- | --- |
| – | 3184 | 3272 | 908 | 1412 | inactive | CG12106 | DRSC17805 |
| – | 5465 | – | 1692 | – | inactive | Slik | DRSC04471 |
| – | 4000 | – | 1714 | – | inactive | CG33494 | DRSC13715 |
| – | 10032 | – | 3424 | – | inactive | CG3328 | DRSC04357 |
| – | 4729 | – | 1608 | – | inactive | Rint1 | DRSC11010 |
| – | 16857 | – | 4392 | – | inactive | Tmep | DRSC08215 |
| – | 8551 | 7.16e5 | 3814 | 3.27e5 | inactive | frm | DRSC09753 |
| – | 26278 | – | 10949 | – | inactive | CG3224 | DRSC18295 |
| – | 3.41e5 | 4.23e5 | 1.34e5 | 1.71e5 | inactive | CG32834 | DRSC21929 |
| – | 3053 | 6106 | 439 | 2923 | inactive | CG10481 | DRSC02063 |
| – | 15348 | – | 4160 | – | inactive | Sik3 | DRSC06505 |
| – | 15451 | – | 4764 | – | inactive | Sik3 | DRSC06771 |
| Wg reporter activity lowered | 602 | 5872 | 976 | 3015 | active | CG13310 | DRSC09981 |
| – | 3878 | 4916 | 969 | 2668 | inactive | trk | DRSC03625 |
| – | 2828 | 4951 | 994 | 2343 | inactive | CG15387 | DRSC00401 |
| – | 5136 | – | 1850 | – | inactive | Fitm | DRSC09772 |
| – | 2752 | 4985 | 951 | 2193 | inactive | Dlic | DRSC19824 |
